Earlier results, collected in patent EP4494632A1, “LIPOPHILIC-BASED COMPOSITION” (Consejo Superior de Investigaciones Científicas (CSIC), priority 2023, dated 2025).
For at least one compound, name, drawing or mass did not settle the structure.

Settings: BCS group; cited from earlier work

For `C[C@@H]1C[C@H]2[C@@H]3CCC4=CC(=O)C=C[C@]4(C)[C@@]3(F)[C@@H](O)C[C@]2(C)[C@@]1(O)C(=O)CO` [Dexamethasone (DEX), Dexamethasone], which Group is on record?
The Group was 3.
